Paper PMC11077377
These are yes or no findings as the source states them, for the method shown. Binding seen in cells or lysates may run through a third protein. Here binding means that the protein was enriched with, or labelled near, the bait; the list need not be complete.

Protein sequences, listed by entry. Tags and fused reporters are not part of them. Residues count along the entry.
UniProt Q16610, residues 20-540: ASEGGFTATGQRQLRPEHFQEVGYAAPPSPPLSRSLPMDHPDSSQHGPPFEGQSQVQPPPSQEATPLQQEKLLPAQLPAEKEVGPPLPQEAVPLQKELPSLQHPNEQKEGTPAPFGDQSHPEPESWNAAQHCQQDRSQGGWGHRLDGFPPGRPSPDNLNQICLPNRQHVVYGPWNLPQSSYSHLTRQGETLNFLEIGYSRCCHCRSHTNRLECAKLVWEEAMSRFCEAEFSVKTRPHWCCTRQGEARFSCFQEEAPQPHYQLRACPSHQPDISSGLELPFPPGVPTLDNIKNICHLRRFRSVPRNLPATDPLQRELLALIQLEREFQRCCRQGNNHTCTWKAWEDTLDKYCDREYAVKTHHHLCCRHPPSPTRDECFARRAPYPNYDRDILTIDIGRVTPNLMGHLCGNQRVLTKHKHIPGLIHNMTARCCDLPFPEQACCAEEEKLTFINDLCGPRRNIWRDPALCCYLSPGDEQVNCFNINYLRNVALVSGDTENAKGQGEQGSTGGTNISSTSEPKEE
UniProt P35968, residues 20-1356: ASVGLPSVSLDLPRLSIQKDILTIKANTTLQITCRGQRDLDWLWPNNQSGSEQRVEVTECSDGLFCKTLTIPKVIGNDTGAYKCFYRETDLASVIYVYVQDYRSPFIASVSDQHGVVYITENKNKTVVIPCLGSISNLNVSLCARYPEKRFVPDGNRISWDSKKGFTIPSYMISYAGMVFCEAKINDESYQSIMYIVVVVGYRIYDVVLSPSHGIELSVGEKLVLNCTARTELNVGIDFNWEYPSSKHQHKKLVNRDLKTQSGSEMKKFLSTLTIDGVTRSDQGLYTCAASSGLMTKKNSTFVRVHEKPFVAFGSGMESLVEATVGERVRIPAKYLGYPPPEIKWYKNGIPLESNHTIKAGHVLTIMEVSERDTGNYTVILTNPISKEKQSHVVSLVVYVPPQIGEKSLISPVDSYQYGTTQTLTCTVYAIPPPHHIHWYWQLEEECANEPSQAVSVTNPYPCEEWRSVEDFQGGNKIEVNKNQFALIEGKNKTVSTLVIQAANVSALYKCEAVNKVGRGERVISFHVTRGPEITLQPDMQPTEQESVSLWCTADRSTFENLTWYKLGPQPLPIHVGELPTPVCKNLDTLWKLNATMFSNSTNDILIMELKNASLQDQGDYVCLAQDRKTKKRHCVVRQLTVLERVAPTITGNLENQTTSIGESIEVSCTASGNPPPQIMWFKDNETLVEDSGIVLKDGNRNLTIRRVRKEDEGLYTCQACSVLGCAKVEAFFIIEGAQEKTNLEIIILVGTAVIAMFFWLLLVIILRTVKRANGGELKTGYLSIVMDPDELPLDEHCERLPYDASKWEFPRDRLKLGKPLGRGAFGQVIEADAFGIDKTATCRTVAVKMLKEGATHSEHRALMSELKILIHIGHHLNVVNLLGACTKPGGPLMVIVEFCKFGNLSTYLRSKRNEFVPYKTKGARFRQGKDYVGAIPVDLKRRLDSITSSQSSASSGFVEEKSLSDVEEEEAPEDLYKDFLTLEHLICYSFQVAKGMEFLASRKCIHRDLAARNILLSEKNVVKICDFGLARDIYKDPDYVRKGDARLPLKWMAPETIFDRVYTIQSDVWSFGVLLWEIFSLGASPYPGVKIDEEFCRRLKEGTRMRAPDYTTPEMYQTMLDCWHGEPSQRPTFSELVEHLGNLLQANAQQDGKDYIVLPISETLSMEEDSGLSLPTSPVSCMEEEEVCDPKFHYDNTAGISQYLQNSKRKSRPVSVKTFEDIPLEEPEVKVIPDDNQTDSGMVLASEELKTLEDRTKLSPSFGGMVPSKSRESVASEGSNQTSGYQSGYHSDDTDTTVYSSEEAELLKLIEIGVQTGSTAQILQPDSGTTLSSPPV

Biological target: extracellular matrix protein 1 (ECM1) (human) (UniProt Q16610)
Test: affinity purification with mass spectrometry; IP of ECM1 from RIPA cell lysate on protein A/G beads; SDS-PAGE, silver staining, stained band excised and sent for mass spectrometry

binding: binds
Substance: vascular endothelial growth factor receptor 2 (VEGFR2) (from UniProt P35968 20-1356)
